Some results were stated once for a whole list of compounds, not compound by compound.
Test: EDTA challenge of 64Cu-radiolabeled complexes of chelators A-F
Format: physicochemical
Conditions: EDTA 100-fold molar excess, 24 h time point
Method: ^64Cu-radiolabeled complexes were further evaluated for complex stability based on EDTA challenge. ^64Cu-radiolabeled complexes were freshly prepared and treated with a solution of EDTA at a 100-fold molar excess, and the resulting solution (pH 5.5) was incubated at 37° C. for 24 h. […] Dissociation of the activity from the ^64Cu-radiolabeled chelators was also measured using radio-HPLC at 25 h time point (FIG. 5). […]
^64Cu-radiolabeled complexes were prepared by reaction of each chelator (20 μg) with ^64Cu (60 μCi) in 0.25M NH4OAc buffer (pH 5.5) for 2 h at room temperature. […] The stability of ^64Cu-radiolabeled complexes in the solution was evaluated using ITLC (20 mM EDTA in 0.15M NH4OAc). A solution of the radiolabeled complex in serum (3˜20 μL) was withdrawn at the designated time points and evaluated by ITLC as described above. Stability of the complexes was also evaluated at 25 h time point by HPLC (solvent A: 0.1% TFA in H2O, solvent B: 0.1% TFA in CH3CN, 0-100% B/15 min, flow rate: 1 mL/min). ^64Cu-EDTA complex was eluted early (tR=˜2.5 min), while ^64Cu-radiolabeled complexes of chelators A-D, E, and F have the respective retention time (tR=7˜8 min, tR=4.6 min, and tR=6.2 min).

O=C(O)CN1CCN(CC(=O)O)CCN(CC(O)CCc2ccc([N+](=O)[O-])cc2)CC1 (centres unmarked) [Chelator D, 2-[4-(carboxymethyl)-7-[2-hydroxy-4-(4-nitrophenyl)butyl]-1,4,7-triazonan-1-yl]acetic acid]
64Cu activity dissociated from the complex / transferred to EDTA: > 45%

O=C(O)CN1CCN(CC(=O)O)CCN(Cc2cccs2)CC1 [Chelator F, 2-[4-(carboxymethyl)-7-(thiophen-2-ylmethyl)-1,4,7-triazonan-1-yl]acetic acid]
64Cu activity dissociated from the complex / transferred to EDTA: > 45%
